From patent US6020121A (priority 1996, dated 2000)

Test system: alpha-hemolysin
Assay type: cell-based, Staphylococcus aureus

CCC[C@@H]1C[C@@H](C(=O)N[C@@H]([C@H]2O[C@H](SC)[C@H](O)[C@@H](O)[C@H]2O)[C@H](C)Cl)N(C)C1 [clindamycin]
alpha-hemolysin activity (in words): did not inhibit alpha-hemolysin activity
